Reference: PMC8553094
Results are given in words; binding and its absence hold for the method and conditions named. In cells and extracts the contact can be indirect. Some binding calls cover weakened binding; strength is not graded here. Where a sequence is shown, tags or fusion partners need not be part of it.

What was measured:
Flag-Wtip (Xenopus) = Flag-Wtip (Xenopus) (UniProt A9LS46); assay: co-IP; Xenopus embryos coinjected with RNAs (300 pg each) and lysed at stage 11 (1% Triton X-100, 50 mM NaCl, 50 mM Tris-HCl pH 7.6, 1 mM EDTA); anti-Flag M2 agarose beads overnight at 4°C; immunoblot for Flag and GFP
Flag-WtipN (Xenopus) = biological target: T1, Flag-WtipN (Xenopus) (UniProt A9LS46); assay: as above
T1 sequence: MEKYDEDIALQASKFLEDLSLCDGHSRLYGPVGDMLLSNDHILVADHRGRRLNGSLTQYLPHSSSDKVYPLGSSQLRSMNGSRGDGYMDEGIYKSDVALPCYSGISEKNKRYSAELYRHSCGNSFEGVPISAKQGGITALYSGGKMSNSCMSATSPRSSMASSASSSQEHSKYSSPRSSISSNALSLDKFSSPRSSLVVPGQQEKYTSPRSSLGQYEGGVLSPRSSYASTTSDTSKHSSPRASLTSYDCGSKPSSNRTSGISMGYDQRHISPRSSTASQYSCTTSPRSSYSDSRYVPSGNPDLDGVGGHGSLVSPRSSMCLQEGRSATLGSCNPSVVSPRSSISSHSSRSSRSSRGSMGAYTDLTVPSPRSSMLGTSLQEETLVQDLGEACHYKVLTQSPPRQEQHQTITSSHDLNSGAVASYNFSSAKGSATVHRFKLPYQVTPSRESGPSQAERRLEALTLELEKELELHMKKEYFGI

- binding (Flag-Wtip (Xenopus)): binds
- binding (Flag-WtipN (Xenopus)): binds
B1: GFP-hSSX2IP (protein, UniProt Q9Y2D8 1-614)
chain: MGDWMTVTDPGLSSESKTISQYTSETKMSPSSLYSQQVLCSSIPLSKNVHSFFSAFCTEDNIEQSISYLDQELTTFGFPSLYEESKGKETKRELNIVAVLNCMNELLVLQRKNLLAQENVETQNLKLGSDMDHLQSCYSKLKEQLETSRREMIGLQERDRQLQCKNRNLHQLLKNEKDEVQKLQNIIASRATQYNHDMKRKEREYNKLKERLHQLVMNKKDKKIAMDILNYVGRADGKRGSWRTGKTEARNEDEMYKILLNDYEYRQKQILMENAELKKVLQQMKKEMISLLSPQKKKPRERVDDSTGTVISDVEEDAGELSRESMWDLSCETVREQLTNSIRKQWRILKSHVEKLDNQVSKVHLEGFNDEDVISRQDHEQETEKLELEIQQCKEMIKTQQQLLQQQLATAYDDDTTSLLRDCYLLEEKERLKEEWSLFKEQKKNFERERRSFTEAAIRLGLERKAFEEERASWLKQQFLNMTTFDHQNSENVKLFSAFSGSSDWDNLIVHSRQPQKKPHSVSNGSPVCMSKLTKSLPASPSTSDFCQTRSCISEHSSINVLNITAEEIKPNQVGGECTNQKWSVASRPGSQEGCYSGCSLSYTNSHVEKDDLP
